Results: patent US8263749B2, “Imatinib immunoassay” (Saladax Biomedical Inc., priority 2009, dated 2012)

System: antibodies to imatinib
Test: Immunoassay reactivity of the antibodies produced in accordance with the invention (polyclonal and monoclonal)
Assay type: binding, mouse
Conditions: summary of Tables I and II
Description: The present invention relates to novel antibodies and monoclonal antibodies to imatinib or its pharmacologically active salts. The antisera of the invention can be conveniently produced by immunizing host animals with the immunogens of this invention. Suitable host animals include rodents, such as, for example, mice, rats, rabbits, guinea pigs and the like, or higher mammals such as goats, sheep, horses and the like. […]
The ELISA method for determining IC50 values and cross-reactivity was performed with the microtiter plates that were sensitized with imatinib-BSA described in Examples 9. […] The assays were all performed by diluting the concentration of the antibodies in each of the wells to the titer determined in Example 10a. […] Following the incubation for color development, 50 of stop solution (1.5% sodium fluoride in di H2O) was added to each well to stop the color development and after 20 seconds of shaking the absorbance was determined at 650 nm (Molecular Devices Plate Reader). The amount of antibody in a well was proportional to the absorbance measured and inversely proportional to the amount of imatinib in the sample. The IC50's of imatinib and N-desmethyl imatinib were determined by constructing dose-response curves with the absorbance in the wells plotted versus analyte concentration in the wells. […]

CS(=O)(=O)O.Cc1ccc(NC(=O)c2ccc(CN3CCN(C)CC3)cc2)cc1Nc1nccc(-c2cccnc2)n1 [imatinib mesylate]
reactivity with the antibodies: substantially reactive
